Results are given in words; binding and its absence hold for the method and conditions named. Some binding calls cover weakened binding; strength is not graded here.
Target: human SEZ6L2 on cells (293-SEZ6L2, HEK 293 cells transfected with human SEZ6L2, and SEZ6L2-expressing tumor cell lines) (human) (UniProt Q6UXD5)
Assay: immunofluorescence and flow cytometry on HEK 293 cells transfected with human SEZ6L2 against untransfected cells

The chains behind the UniProt entries cited, without tags or fusion partners. Where a name states a change or a piece, a line headed by the entry shows the natural chain unless it says otherwise.
UniProt Q6UXD5: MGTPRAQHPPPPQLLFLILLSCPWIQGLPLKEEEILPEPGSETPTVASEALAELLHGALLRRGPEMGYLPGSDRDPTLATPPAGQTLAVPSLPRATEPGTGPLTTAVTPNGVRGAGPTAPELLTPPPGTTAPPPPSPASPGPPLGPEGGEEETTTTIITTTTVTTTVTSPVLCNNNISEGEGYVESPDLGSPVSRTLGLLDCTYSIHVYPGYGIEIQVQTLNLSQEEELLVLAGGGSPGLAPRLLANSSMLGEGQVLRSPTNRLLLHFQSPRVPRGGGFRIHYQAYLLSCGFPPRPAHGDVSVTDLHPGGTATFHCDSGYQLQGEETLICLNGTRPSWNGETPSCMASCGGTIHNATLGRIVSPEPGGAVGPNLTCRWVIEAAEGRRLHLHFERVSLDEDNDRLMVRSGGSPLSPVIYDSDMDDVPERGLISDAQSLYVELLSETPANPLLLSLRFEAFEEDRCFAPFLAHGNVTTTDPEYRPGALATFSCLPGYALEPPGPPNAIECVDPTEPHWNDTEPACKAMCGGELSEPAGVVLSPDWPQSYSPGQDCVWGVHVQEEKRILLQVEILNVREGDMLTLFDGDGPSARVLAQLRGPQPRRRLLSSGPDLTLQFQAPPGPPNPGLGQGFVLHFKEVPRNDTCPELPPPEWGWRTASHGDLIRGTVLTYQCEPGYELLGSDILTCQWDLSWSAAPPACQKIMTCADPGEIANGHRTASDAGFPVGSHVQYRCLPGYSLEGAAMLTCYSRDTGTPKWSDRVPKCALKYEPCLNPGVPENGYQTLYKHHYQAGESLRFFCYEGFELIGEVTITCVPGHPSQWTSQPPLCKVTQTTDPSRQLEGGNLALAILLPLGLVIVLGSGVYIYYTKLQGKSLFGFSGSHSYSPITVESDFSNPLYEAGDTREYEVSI

B1: murine anti-SEZ6L2 antibody mu20C4 (antibody, V domains shown)
VH: DVMLVESGGVLVQPGGSLSLSCAASGFTFTDYYMSWVRQPPGKALEWLALIRNKANGYTTEYSASVKGRFTISRDNSQSILYLQMNALRAEDSATYYCARNGLYGLFAYWGQGTLVTVSA
VL: DIVMTQTAPSIPVTPGESVSISCRSSTSLLESSGKHRLYWFLQRPGQSPQLLIYYMSNLASGVPDRFSGSGSGTDFTLRISRVEAEDFGVYYCMQSLEYPLTFGAGTKLEIK
Question: How did the binding turn out when B1 was run?
Answer: Its binding is “binds”.

Source: patent US20210130454A1
